Source: the supplement of paper PMC8728848
The other results are listed elsewhere or left out.

Experiments:
Experiment in all cases: glycan array binding signal (z-score within array); higher = stronger binding
Conditions in all cases: glycan notation: IUPAC condensed, linker removed
Gal6S(b1-4)Glc6S = biological target: Gal6S(b1-4)Glc6S
Summary of the method: (§1)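 The binding signal is a Z-score computed within each array and averaged over linkers. Arrays of the same protein sequence at different concentrations or buffers were also averaged together. Data originate from 3228 arrays in the Consortium for Functional Glycomics database, kept only where the protein sequence was available.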

Gal6S(b1-4)GlcNAc = biological target: Gal6S(b1-4)GlcNAc
Summary of the method: as §1

Gal6S(b1-4)GlcNAc6S = biological target: Gal6S(b1-4)GlcNAc6S
Summary of the method: as §1

GalNAc(a1-3)Gal = biological target: GalNAc(a1-3)Gal
Summary of the method: as §1

GalNAc(a1-3)GalNAc = biological target: GalNAc(a1-3)GalNAc
Summary of the method: as §1

[1] = biological target: GalNAc(a1-3)GalNAc(b1-3)Gal(a1-4)Gal(b1-4)Glc
Summary of the method: as §1

[2] = biological target: GalNAc(a1-3)GalNAc(b1-3)Gal(a1-4)Gal(b1-4)GlcNAc
Summary of the method: as §1

GalNAc(b1-3)Gal = biological target: GalNAc(b1-3)Gal
Summary of the method: as §1

[3] = biological target: GalNAc(b1-3)Gal(a1-4)Gal(b1-4)GlcNAc
Summary of the method: as §1

[4] = biological target: GalNAc(b1-3)Gal(a1-4)Gal(b1-4)GlcNAc(b1-3)Gal(b1-4)Glc
Summary of the method: as §1

[5] = biological target: GalNAc(b1-3)Gal(a1-6)Gal(b1-4)Glc
Summary of the method: as §1

GalNAc(b1-3)GalNAc = biological target: GalNAc(b1-3)GalNAc
Summary of the method: as §1

GalNAc(b1-3)GlcNAc = biological target: GalNAc(b1-3)GlcNAc
Summary of the method: as §1

GalNAc(b1-4)Gal(b1-4)Glc = biological target: GalNAc(b1-4)Gal(b1-4)Glc
Summary of the method: as §1

GalNAc(b1-4)GlcNAc = biological target: GalNAc(b1-4)GlcNAc
Summary of the method: as §1

[6] = biological target: GalNAc(b1-4)GlcNAc(b1-2)Man
Summary of the method: as §1

[7] = biological target: GalNAc(b1-4)GlcNAc(b1-2)Man(a1-3)[GalNAc(b1-4)GlcNAc(b1-2)Man(a1-6)]Man(b1-4)GlcNAc(b1-4)GlcNAc
Summary of the method: as §1

[8] = biological target: GalNAc(b1-4)GlcNAc(b1-3)GalNAc(b1-4)GlcNAc
Summary of the method: as §1

GalNAc(b1-4)GlcNAc6S = biological target: GalNAc(b1-4)GlcNAc6S
Summary of the method: as §1

GalNAc(b1-6)GalNAc = biological target: GalNAc(b1-6)GalNAc
Summary of the method: as §1

GalNAc3S(b1-4)GlcNAc = biological target: GalNAc3S(b1-4)GlcNAc
Summary of the method: as §1

GalNAc3S(b1-4)GlcNAc3S = biological target: GalNAc3S(b1-4)GlcNAc3S
Summary of the method: as §1

[9] = biological target: GalNAc3S(b1-4)[Fuc(a1-3)]GlcNAc
Summary of the method: as §1

GalNAc4S6S(b1-4)GlcNAc = biological target: GalNAc4S6S(b1-4)GlcNAc
Summary of the method: as §1

GalNAc6S(b1-4)GlcNAc = biological target: GalNAc6S(b1-4)GlcNAc
Summary of the method: as §1

Glc(a1-4)Glc = biological target: Glc(a1-4)Glc
Summary of the method: as §1

[10] = biological target: Glc(a1-4)Glc(a1-4)Glc(a1-4)Glc
Summary of the method: as §1

Glc(a1-6)Glc(a1-6)Glc = biological target: Glc(a1-6)Glc(a1-6)Glc
Summary of the method: as §1

[11] = biological target: Glc(a1-6)Glc(a1-6)Glc(a1-6)Glc
Summary of the method: as §1

Glc(b1-4)Glc = biological target: Glc(b1-4)Glc
Summary of the method: as §1

Glc(b1-6)Glc = biological target: Glc(b1-6)Glc
Summary of the method: as §1

GlcA(b1-3)Gal = biological target: GlcA(b1-3)Gal
Summary of the method: as §1

GlcA(b1-3)GlcNAc = biological target: GlcA(b1-3)GlcNAc
Summary of the method: as §1

GlcA(b1-6)Gal = biological target: GlcA(b1-6)Gal
Summary of the method: as §1

[12] = biological target: GlcA3S(b1-3)Gal(b1-4)GlcNAc(b1-2)Man
Summary of the method: as §1

[13] = biological target: GlcA3S(b1-3)Gal(b1-4)GlcNAc(b1-3)Gal(b1-4)Glc
Summary of the method: as §1

[14] = biological target: GlcNAc(a1-3)Gal(b1-4)GlcNAc
Summary of the method: as §1

B1: PX14343E-bfa-545-24-545 (Bacteroides fragilis) (protein)
chain: LDRYPQEELSDGSFWKTPDDANKVVSDLYGYLSTWDQDNDINSDNATMGIKWAAGNVSKGIYDPADQGWSGDYANVRQCNLILSKIDEIPDYPEADKTKALGQVYFFRAYIYFNLIRSFGDVPYIDKPLDLKDMEGITRMPRAEVYEKIMADFDKAIAALPTEWGASDYGRVTKGAAMAMKARAALYYGNWDTAATEAKNVMDLGLYELYDKDNTGKYAELFWEKADGCDEFILVTQFNYPDKTHYLMGWECFPTKGWGGMNPTQSLVDAFEDSEGAPISKSKIYDPTDPFKNRDPRLEVDILHDGEEMYGVTIKVAPLASSGSTGINQHNDATETGYYGQKWLDPSLDPLSDGWNMGKDWVHIRYAEVLLTYAEAKNELQGLDPEAFDAVNQVRRRVGMPELQNTDPSKPTYCATQDDLRQRIRNEWRVEFCLEGGKRMWDIRRWGIAKDVLNAPFEGLKYKIVDNPNDPDKKVDGGKMCILYQGDPIILSGSRYSDNNYLFPVPQSEIDLNPALTQNPGY
glycan array binding signal (z-score) (Gal6S(b1-4)Glc6S): 1.69
glycan array binding signal (z-score) (Gal6S(b1-4)GlcNAc): -1.1
glycan array binding signal (z-score) (Gal6S(b1-4)GlcNAc6S): -0.429
glycan array binding signal (z-score) (GalNAc(a1-3)Gal): -0.081
glycan array binding signal (z-score) (GalNAc(a1-3)GalNAc): -0.557
glycan array binding signal (z-score) [1]: -0.418
glycan array binding signal (z-score) [2]: 0.216
glycan array binding signal (z-score) (GalNAc(b1-3)Gal): 0.841
glycan array binding signal (z-score) [3]: -0.568
glycan array binding signal (z-score) [4]: 0.963
glycan array binding signal (z-score) [5]: -0.333
glycan array binding signal (z-score) (GalNAc(b1-3)GalNAc): -0.529
glycan array binding signal (z-score) (GalNAc(b1-3)GlcNAc): 0.169
glycan array binding signal (z-score) (GalNAc(b1-4)Gal(b1-4)Glc): 0.768
glycan array binding signal (z-score) (GalNAc(b1-4)GlcNAc): -0.798
glycan array binding signal (z-score) [6]: -0.317
glycan array binding signal (z-score) [7]: 1.25
glycan array binding signal (z-score) [8]: -0.624
glycan array binding signal (z-score) (GalNAc(b1-4)GlcNAc6S): -0.392
glycan array binding signal (z-score) (GalNAc(b1-6)GalNAc): -0.165
glycan array binding signal (z-score) (GalNAc3S(b1-4)GlcNAc): -0.165
glycan array binding signal (z-score) (GalNAc3S(b1-4)GlcNAc3S): -1.05
glycan array binding signal (z-score) [9]: -0.057
glycan array binding signal (z-score) (GalNAc4S6S(b1-4)GlcNAc): -0.119
glycan array binding signal (z-score) (GalNAc6S(b1-4)GlcNAc): -0.18
glycan array binding signal (z-score) (Glc(a1-4)Glc): -0.039
glycan array binding signal (z-score) [10]: 1.57
glycan array binding signal (z-score) (Glc(a1-6)Glc(a1-6)Glc): -0.543
glycan array binding signal (z-score) [11]: -0.196
glycan array binding signal (z-score) (Glc(b1-4)Glc): 0.195
glycan array binding signal (z-score) (Glc(b1-6)Glc): -0.742
glycan array binding signal (z-score) (GlcA(b1-3)Gal): -0.027
glycan array binding signal (z-score) (GlcA(b1-3)GlcNAc): -0.841
glycan array binding signal (z-score) (GlcA(b1-6)Gal): -1.16
glycan array binding signal (z-score) [12]: -0.441
glycan array binding signal (z-score) [13]: 0.847
glycan array binding signal (z-score) [14]: -0.454
